Experimental data as given in PubChem BioAssay AID1768 (National Center for Advancing Translational Sciences (NCATS), 2009).
The whole screen tested about 270,000 compounds, of which about 620 (0.23%) were called active. These results got no clear call from the source, so the numbers are uncertain. Calls follow the shape of the dose curve; as a rule, active = well fitted inhibition curve with a large enough effect in the polarisation, with a control signal flat (not every such curve was filed as active); inconclusive = small, poorly fitted or top-dose-only effect, or effect the other way, or a change in a side signal; inactive = no such curve, though single readings can be large or run the other way; the % refers to the polarisation.
Potency is read from the fitted curve at half-maximal effect.

Sequences of proteins named here, by UniProt entry; tags and fusion partners are left off.
UniProt O00255, whole entry: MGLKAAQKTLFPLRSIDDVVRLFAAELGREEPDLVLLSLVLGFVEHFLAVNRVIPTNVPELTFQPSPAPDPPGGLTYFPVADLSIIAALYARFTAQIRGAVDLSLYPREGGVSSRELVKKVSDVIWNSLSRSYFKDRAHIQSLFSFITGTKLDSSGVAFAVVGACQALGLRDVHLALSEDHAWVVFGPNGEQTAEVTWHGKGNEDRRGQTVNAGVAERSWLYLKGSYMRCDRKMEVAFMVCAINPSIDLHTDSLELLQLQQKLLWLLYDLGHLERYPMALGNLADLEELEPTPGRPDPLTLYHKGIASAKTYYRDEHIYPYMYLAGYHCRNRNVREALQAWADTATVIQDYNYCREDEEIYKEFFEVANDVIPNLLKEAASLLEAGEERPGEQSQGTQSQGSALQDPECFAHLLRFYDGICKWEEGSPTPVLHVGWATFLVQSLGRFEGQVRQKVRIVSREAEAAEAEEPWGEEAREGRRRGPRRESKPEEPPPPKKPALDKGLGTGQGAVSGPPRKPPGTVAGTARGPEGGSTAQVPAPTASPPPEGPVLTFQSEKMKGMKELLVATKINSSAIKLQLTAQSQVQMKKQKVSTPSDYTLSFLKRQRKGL
UniProt Q03164, whole entry partner: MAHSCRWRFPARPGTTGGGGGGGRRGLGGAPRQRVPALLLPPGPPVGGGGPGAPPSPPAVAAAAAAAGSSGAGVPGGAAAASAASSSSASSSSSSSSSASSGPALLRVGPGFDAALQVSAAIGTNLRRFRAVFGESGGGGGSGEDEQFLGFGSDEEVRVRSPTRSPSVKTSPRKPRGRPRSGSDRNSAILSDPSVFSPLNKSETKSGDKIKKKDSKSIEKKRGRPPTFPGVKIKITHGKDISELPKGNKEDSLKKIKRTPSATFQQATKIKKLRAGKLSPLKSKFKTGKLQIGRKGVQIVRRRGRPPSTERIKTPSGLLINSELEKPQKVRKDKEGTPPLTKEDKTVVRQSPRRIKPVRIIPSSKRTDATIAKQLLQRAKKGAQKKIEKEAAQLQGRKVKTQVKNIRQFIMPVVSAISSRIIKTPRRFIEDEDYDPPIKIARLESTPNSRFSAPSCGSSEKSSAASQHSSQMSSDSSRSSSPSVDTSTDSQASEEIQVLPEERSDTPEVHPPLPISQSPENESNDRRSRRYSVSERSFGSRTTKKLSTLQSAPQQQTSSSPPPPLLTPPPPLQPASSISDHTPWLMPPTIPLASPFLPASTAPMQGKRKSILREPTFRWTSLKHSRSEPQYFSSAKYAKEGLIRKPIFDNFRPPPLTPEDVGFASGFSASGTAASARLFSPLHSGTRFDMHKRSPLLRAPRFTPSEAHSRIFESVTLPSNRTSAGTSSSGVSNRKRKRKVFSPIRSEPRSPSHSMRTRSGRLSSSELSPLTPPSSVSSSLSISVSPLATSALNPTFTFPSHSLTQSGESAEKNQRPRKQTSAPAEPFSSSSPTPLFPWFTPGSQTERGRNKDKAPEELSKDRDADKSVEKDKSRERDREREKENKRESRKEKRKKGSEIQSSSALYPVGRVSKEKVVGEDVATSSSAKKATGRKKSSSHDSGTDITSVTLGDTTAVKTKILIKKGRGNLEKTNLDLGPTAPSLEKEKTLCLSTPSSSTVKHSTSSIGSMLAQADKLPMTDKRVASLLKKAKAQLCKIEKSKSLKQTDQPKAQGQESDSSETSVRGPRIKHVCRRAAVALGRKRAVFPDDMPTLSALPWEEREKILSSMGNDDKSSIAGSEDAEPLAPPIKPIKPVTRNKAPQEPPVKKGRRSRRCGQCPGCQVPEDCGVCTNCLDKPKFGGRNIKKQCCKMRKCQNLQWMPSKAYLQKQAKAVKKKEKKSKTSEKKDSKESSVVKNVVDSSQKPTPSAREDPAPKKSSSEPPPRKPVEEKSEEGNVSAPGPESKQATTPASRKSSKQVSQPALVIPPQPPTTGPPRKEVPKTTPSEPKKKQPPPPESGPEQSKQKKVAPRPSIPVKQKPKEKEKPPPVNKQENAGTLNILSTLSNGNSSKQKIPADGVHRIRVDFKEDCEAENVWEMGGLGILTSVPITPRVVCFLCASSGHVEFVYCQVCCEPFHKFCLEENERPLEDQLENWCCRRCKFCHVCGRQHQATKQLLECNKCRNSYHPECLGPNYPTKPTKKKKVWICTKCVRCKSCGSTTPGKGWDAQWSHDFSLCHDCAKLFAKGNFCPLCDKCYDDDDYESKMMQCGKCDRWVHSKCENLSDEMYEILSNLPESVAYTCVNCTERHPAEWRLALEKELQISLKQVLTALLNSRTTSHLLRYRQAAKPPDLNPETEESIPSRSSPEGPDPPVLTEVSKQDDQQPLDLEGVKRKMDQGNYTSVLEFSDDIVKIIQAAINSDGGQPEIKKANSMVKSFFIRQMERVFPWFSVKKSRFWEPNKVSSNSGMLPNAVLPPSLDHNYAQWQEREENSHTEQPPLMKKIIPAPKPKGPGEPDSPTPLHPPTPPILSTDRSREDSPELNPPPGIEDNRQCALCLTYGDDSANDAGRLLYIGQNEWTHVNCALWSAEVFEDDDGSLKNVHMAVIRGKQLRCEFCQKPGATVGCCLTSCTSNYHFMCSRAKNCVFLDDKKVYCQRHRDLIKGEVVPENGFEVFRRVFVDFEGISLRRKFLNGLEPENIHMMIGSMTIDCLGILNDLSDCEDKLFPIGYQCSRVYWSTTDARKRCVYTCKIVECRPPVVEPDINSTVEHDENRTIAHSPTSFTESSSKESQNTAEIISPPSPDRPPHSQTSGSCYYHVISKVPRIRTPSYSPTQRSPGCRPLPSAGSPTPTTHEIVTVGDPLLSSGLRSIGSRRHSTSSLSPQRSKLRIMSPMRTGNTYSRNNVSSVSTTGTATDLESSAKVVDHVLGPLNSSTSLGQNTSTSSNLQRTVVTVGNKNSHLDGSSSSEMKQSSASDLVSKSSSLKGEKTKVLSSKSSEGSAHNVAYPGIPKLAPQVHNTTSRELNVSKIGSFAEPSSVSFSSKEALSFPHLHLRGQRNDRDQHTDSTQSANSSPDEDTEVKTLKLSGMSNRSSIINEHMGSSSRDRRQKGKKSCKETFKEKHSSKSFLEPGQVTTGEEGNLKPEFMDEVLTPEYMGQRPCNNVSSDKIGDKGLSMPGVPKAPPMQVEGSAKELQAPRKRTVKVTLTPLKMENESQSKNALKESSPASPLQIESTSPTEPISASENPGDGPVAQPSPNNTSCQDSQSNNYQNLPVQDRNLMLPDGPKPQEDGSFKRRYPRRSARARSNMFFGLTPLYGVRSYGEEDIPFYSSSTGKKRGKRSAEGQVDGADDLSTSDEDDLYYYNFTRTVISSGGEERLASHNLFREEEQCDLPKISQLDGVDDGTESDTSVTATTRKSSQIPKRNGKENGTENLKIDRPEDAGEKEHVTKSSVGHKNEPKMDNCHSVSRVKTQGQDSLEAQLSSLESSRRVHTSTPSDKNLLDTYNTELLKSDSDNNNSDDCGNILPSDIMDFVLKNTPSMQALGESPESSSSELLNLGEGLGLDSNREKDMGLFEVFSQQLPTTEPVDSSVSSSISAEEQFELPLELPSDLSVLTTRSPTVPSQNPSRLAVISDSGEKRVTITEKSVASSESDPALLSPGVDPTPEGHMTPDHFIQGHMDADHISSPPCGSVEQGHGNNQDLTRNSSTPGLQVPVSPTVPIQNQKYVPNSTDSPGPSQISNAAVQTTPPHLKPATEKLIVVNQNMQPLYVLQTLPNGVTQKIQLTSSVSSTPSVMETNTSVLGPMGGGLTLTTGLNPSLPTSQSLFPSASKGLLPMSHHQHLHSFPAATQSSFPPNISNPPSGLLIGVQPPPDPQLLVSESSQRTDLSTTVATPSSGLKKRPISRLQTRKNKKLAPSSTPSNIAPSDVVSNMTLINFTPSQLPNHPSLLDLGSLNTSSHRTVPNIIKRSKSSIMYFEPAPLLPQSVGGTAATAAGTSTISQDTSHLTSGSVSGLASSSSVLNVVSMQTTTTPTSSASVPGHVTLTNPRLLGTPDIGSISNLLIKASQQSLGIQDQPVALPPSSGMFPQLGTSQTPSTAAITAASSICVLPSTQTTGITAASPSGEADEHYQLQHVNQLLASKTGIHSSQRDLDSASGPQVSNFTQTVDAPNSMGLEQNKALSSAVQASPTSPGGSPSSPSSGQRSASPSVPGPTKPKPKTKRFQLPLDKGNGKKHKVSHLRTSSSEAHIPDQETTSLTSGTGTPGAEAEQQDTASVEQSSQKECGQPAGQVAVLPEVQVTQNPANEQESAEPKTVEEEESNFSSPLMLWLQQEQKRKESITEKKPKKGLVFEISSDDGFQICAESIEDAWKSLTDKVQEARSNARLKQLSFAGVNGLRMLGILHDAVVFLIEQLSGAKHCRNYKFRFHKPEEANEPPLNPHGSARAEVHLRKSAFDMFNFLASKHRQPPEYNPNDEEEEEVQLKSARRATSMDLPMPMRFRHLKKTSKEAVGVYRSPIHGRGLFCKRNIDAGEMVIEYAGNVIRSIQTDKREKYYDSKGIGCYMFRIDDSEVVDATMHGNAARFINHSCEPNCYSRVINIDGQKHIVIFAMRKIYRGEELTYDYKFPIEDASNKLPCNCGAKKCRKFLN

What follows are compounds tested against Menin (Homo sapiens) (UniProt O00255) (assay: qHTS Assay for Inhibitors Targeting the Menin-MLL Interaction in MLL Related Leukemias: Competition With Texas Red Labeled MLL-derived Mutant Peptide). Settings: fluorescence polarization.
With `O=[N+]([O-])c1cc([N+](=O)[O-])c(NCC2CCS(=O)(=O)C2)c([N+](=O)[O-])c1` (stereo not drawn) the Potency was inconclusive: 15.8 µM. With `COc1ccc(CN(CCCl)CCCl)cc1Cl` the Potency was inconclusive: 39.8 µM. In the case of `O=[N+]([O-])c1cc([N+](=O)[O-])c(OC2CCCCC2O)c([N+](=O)[O-])c1` (stereo not drawn), the Potency is reported as inconclusive: 39.8 µM. `Cc1cc(C)cc(N(C(=O)c2ccccc2)C2CCN(C(=O)OC(C)(C)C)CC2)c1` was tested, and the Potency was inconclusive: 3.55 µM. For `COc1ccc(C(=O)NCC2(N3CCCCC3)CCCCC2)cc1`, the Potency was inconclusive: 25.1 µM. In the case of `CC(C)(C)OC(=O)N1CCC(N(C(=O)c2ccccc2)c2ccc(F)cc2)CC1`, the Potency is reported as inconclusive: 15.8 µM. `COc1cccc(C(=O)N(c2cc(C)cc(C)c2)C2CCN(C(=O)OC(C)(C)C)CC2)c1` was tested, and the Potency was inconclusive: 7.08 µM. In the case of `CC(C)(C)OC(=O)N1CCC(N(C(=O)c2ccccc2)c2ccc(Cl)cc2)CC1`, the Potency is reported as inconclusive: 10 µM.
